We go through 25 compounds from PubChem BioAssay AID743402 (Broad Institute, 2014).

SMILES strings stand for the structures. In all, about 1,200 compounds went through this assay and about 140 (12%) were called active.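 The calls were made as follows: active = fitted curve falls past -35% activity change at a dose under twice the top valid dose, in every replicate test; inconclusive = replicate tests disagree on the call; inactive = the rest, including activity in the opposite direction.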 Most of the strongest results are missing from this list.

A short description of this experiment: CFTR-F508del correctors, dose response, FRT cells, YFP quenching, cherry-pick (AID 743402).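 Also: compounds act as correctors raising surface CFTR-F508del before acute activation.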 Particulars: FRT CFTR-F508del YFP iodide quenching, 24 h, channel opened with forskolin and a potentiator; at 26 µM (top of the series) unless noted.
In the case of `C[C@@](Cc1ccc(O)c(O)c1)(NN)C(=O)O`, the activity change, negative = more quenching (active) was inactive: 6.46%.

With `CC(=O)NC(c1ccc(Cl)cc1Cl)c1ccc2cccnc2c1O` (stereo not given), the activity change, negative = more quenching (active) was inactive: 16.2%.

Take `Cc1cc(NC(=O)CN2C(=O)NC3(CCCCCC3)C2=O)ccc1Br`: the activity change, negative = more quenching (active) was inactive: 6.67%.

As for `COC(=O)[C@H](CCSC)NC(=O)Cn1cc(C)c(=O)[nH]c1=O`, the activity change, negative = more quenching (active) was inactive: 13.3%.

Turning to `Cc1cnc(NC(=O)c2ccc3c(c2)OCCO3)s1`, the activity change, negative = more quenching (active) was inactive: -20%.

In the case of `COc1cccc(/C=N/Nc2ncnc(Cl)c2N)c1O`, the activity change, negative = more quenching (active) is inactive: -3.33%.

Regarding `O=C(CN(Cc1ccccc1)S(=O)(=O)c1ccc(F)cc1)NCc1cccnc1`, the activity change, negative = more quenching (active) is inactive: 0%.

In the case of `COc1ccc(-n2nnnc2C(c2ccccc2)N2CCN(C/C=C/c3ccccc3)CC2)cc1` (stereo not given), the activity change, negative = more quenching (active) was inactive: 21.9%.

`C#Cc1cc(N2CCN(C(=O)c3ccoc3)CC2)n2nc(-c3cccc(Cl)c3)cc2n1`: the activity change, negative = more quenching (active) was inactive: 12.5%.

Consider `COc1cccc(-c2cnc3c(NC(C)=O)cc(-c4cc(F)ccc4OC)cn23)c1`, for which the activity change, negative = more quenching (active) is inactive: -10%.

For `COc1ccc(NC(=O)C(CC(=O)O)Cc2ccc(Cl)cc2)cc1` (stereo not given), the activity change, negative = more quenching (active) is inactive: 12.9%.

For the compound `O=C(CCNC(=O)c1ccco1)Nc1nc(-c2ccccc2)cs1`, the activity change, negative = more quenching (active) is inactive: 9.79%.

With `CC(Sc1nc2ccccc2c(=O)n1C)C(=O)Nc1ccc2c(c1)OCCO2` (stereo not given), the activity change, negative = more quenching (active) is inactive: 17.5%.

Regarding `Cc1ccc2c(CN3CCN(S(=O)(=O)c4ccc(Cl)cc4)CC3)cc(=O)oc2c1C`, the activity change, negative = more quenching (active) is inactive: -12.7%.

In the case of `O=C(Nc1ccc(Cl)cn1)c1cccc2ccccc12`, the activity change, negative = more quenching (active) was inactive: -8.33%.

For the compound `COc1cc(NC(=O)N2CCNC2=O)cc(C(=O)Nc2cccc(C(F)(F)F)c2)c1`, the activity change, negative = more quenching (active) was inactive: -3.33%.

On to `Cc1ccccc1S(=O)(=O)N1C[C@@H]2N[C@H](C1)C2c1ccc(-c2cccc(C#N)c2)cc1` (stereo not given in full), for which the activity change, negative = more quenching (active) is inactive: 0%.

With `C[C@@H]1CN([C@@H](C)CO)C(=O)Cc2cc(N(C)C)ccc2O[C@@H]1CN(C)Cc1ccccc1`, the activity change, negative = more quenching (active) was inactive: 0%.

As to `CCN(Cc1ccccc1)c1ccc(/C=N/N=C(N)N)cc1`, the activity change, negative = more quenching (active) is inactive: 13.1%.

For `CN(CC(=O)Nc1cccc(S(=O)(=O)N2CCCC2)c1)CC(=O)Nc1ccc(F)c(F)c1F`, the activity change, negative = more quenching (active) is inactive: 13.3%.

Take `O=C(N/N=C/c1cccs1)c1cccc(NC(=O)c2ccccc2Cl)c1`: the activity change, negative = more quenching (active) is inactive: 23.3%.

As to `CC(=O)N1CCc2c(sc(NC(=O)c3ccc4c(c3)OCCO4)c2C#N)C1`, the activity change, negative = more quenching (active) is inactive: 4.95%.

With `N=c1sccn1CC(=O)Nc1ccc(S(N)(=O)=O)cc1`, the activity change, negative = more quenching (active) was inactive: -13.9%.

Turning to `O=C(c1ccc(Br)cc1)c1cc([N+](=O)[O-])ccc1N1CCOCC1`, the activity change, negative = more quenching (active) is inactive: 0%.

For `CN(Cc1c(F)cccc1Cl)C(=O)c1ccc(NC(=O)CC2SC(N3CCCCC3)=NC2=O)cc1` (stereo not given), the activity change, negative = more quenching (active) is inactive: 3.33%.
